Measurements reported in PubChem BioAssay AID1224830 (NIAID, 2016)

Test: 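Genes whose knock-down alters the TNF-alpha reporter response to LPS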 (primary screen)
System: human THP-1 monocytic leukaemia cells, TNF dual-luciferase reporter clone, PMA-differentiated to macrophage-like cells
Reagents: siRNA pool against human genes, 50 nM
Time to read-out: LPS for 4 h, given about 3 days after siRNA transfection
Conditions: bacterial LPS (TLR4 ligand), 10 ng/ml
Measured: 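TNF firefly reporter luminescence divided by renilla, normalised to the plate median, then turned into a robust z-score for each replicate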
Reading the numbers: TNF reporter robust z-score: higher = stronger TNF reporter response to LPS
Call rule: 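a well is active when its z-score exceeds 2.8 or falls below -1.5; control wells carry no call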
Shown is a random part of about 18,000 deposited reagents. Over the whole deposit, about 2,900 (16%) were called active. 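Calls are made per well; low scores hint the gene aids the LPS response, high scores that it dampens it.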 Repeated entries: four replicate wells of each siRNA pool.

The first 5 entries as a preview:
gene knocked down	TNF reporter robust z-score	outcome
RPL22 (ribosomal protein L22)	0.72	inactive
RPL22 (ribosomal protein L22)	1.02	inactive
RPL22 (ribosomal protein L22)	-0.13	inactive
RPL22 (ribosomal protein L22)	0.52	inactive
GPHA2 (glycoprotein hormone subunit alpha 2)	-0.97	inactive

The listing, repeating the preview:
gene knocked down	TNF reporter robust z-score	outcome
RPL22 (ribosomal protein L22)	0.72	inactive
RPL22 (ribosomal protein L22)	1.02	inactive
RPL22 (ribosomal protein L22)	-0.13	inactive
RPL22 (ribosomal protein L22)	0.52	inactive
GPHA2 (glycoprotein hormone subunit alpha 2)	-0.97	inactive
GPHA2 (glycoprotein hormone subunit alpha 2)	0.18	inactive
GPHA2 (glycoprotein hormone subunit alpha 2)	-0.2	inactive
GPHA2 (glycoprotein hormone subunit alpha 2)	-0.02	inactive
NUMB (NUMB endocytic adaptor protein)	2.36	inactive
NUMB (NUMB endocytic adaptor protein)	2.62	inactive
NUMB (NUMB endocytic adaptor protein)	0.41	inactive
NUMB (NUMB endocytic adaptor protein)	2.37	inactive
HOXC6 (homeobox C6)	0.76	inactive
HOXC6 (homeobox C6)	1.84	inactive
HOXC6 (homeobox C6)	1.09	inactive
HOXC6 (homeobox C6)	1.47	inactive
OR1L8 (olfactory receptor family 1 subfamily L member 8)	-1.01	inactive
OR1L8 (olfactory receptor family 1 subfamily L member 8)	-0.83	inactive
OR1L8 (olfactory receptor family 1 subfamily L member 8)	-0.12	inactive
OR1L8 (olfactory receptor family 1 subfamily L member 8)	0.59	inactive
NR5A1 (nuclear receptor subfamily 5 group A member 1)	-0.54	inactive
NR5A1 (nuclear receptor subfamily 5 group A member 1)	-0.29	inactive
NR5A1 (nuclear receptor subfamily 5 group A member 1)	0.23	inactive
NR5A1 (nuclear receptor subfamily 5 group A member 1)	-0.19	inactive
IL1RAP (interleukin 1 receptor accessory protein)	0.04	inactive
IL1RAP (interleukin 1 receptor accessory protein)	0.86	inactive
IL1RAP (interleukin 1 receptor accessory protein)	-0.18	inactive
IL1RAP (interleukin 1 receptor accessory protein)	0.1	inactive
CCAR2 (cell cycle and apoptosis regulator 2)	0.01	inactive
CCAR2 (cell cycle and apoptosis regulator 2)	0.61	inactive
CCAR2 (cell cycle and apoptosis regulator 2)	0.14	inactive
CCAR2 (cell cycle and apoptosis regulator 2)	0.05	inactive
PRKY (protein kinase Y-linked (pseudogene))	-0.28	inactive
PRKY (protein kinase Y-linked (pseudogene))	0.75	inactive
PRKY (protein kinase Y-linked (pseudogene))	0.6	inactive
PRKY (protein kinase Y-linked (pseudogene))	0.98	inactive
CBX5 (chromobox 5)	-0.22	inactive
CBX5 (chromobox 5)	0.57	inactive
CBX5 (chromobox 5)	0.18	inactive
CBX5 (chromobox 5)	0.6	inactive
TOP2A (DNA topoisomerase II alpha)	2.55	inactive
TOP2A (DNA topoisomerase II alpha)	-0.8	inactive
TOP2A (DNA topoisomerase II alpha)	-1.11	inactive
TOP2A (DNA topoisomerase II alpha)	-1.34	inactive
RGS4 (regulator of G protein signaling 4)	-0.24	inactive
RGS4 (regulator of G protein signaling 4)	-0.45	inactive
RGS4 (regulator of G protein signaling 4)	-0.37	inactive
RGS4 (regulator of G protein signaling 4)	-0.08	inactive
MAFK (MAF bZIP transcription factor K)	-0.21	inactive
MAFK (MAF bZIP transcription factor K)	1.18	inactive
MAFK (MAF bZIP transcription factor K)	1.1	inactive
MAFK (MAF bZIP transcription factor K)	-0.26	inactive
TSPAN6 (tetraspanin 6)	2.42	inactive
TSPAN6 (tetraspanin 6)	2.1	inactive
TSPAN6 (tetraspanin 6)	0.72	inactive
TSPAN6 (tetraspanin 6)	0.91	inactive
PIK3R6 (phosphoinositide-3-kinase regulatory subunit 6)	-0.26	inactive
PIK3R6 (phosphoinositide-3-kinase regulatory subunit 6)	0.77	inactive
PIK3R6 (phosphoinositide-3-kinase regulatory subunit 6)	0.23	inactive
PIK3R6 (phosphoinositide-3-kinase regulatory subunit 6)	-0.74	inactive
THAP8 (THAP domain containing 8)	1.74	inactive
THAP8 (THAP domain containing 8)	3.1	active
THAP8 (THAP domain containing 8)	2.21	inactive
THAP8 (THAP domain containing 8)	2.29	inactive
ACTA2 (actin alpha 2, smooth muscle)	-0.81	inactive
ACTA2 (actin alpha 2, smooth muscle)	-1.41	inactive
ACTA2 (actin alpha 2, smooth muscle)	-1.36	inactive
ACTA2 (actin alpha 2, smooth muscle)	-0.64	inactive
HMGCR (3-hydroxy-3-methylglutaryl-CoA reductase)	-1.18	inactive
HMGCR (3-hydroxy-3-methylglutaryl-CoA reductase)	0.14	inactive
HMGCR (3-hydroxy-3-methylglutaryl-CoA reductase)	-1.01	inactive
HMGCR (3-hydroxy-3-methylglutaryl-CoA reductase)	0.21	inactive
PEX2 (peroxisomal biogenesis factor 2)	40.4	active
PEX2 (peroxisomal biogenesis factor 2)	-1.04	inactive
PEX2 (peroxisomal biogenesis factor 2)	-1.01	inactive
PEX2 (peroxisomal biogenesis factor 2)	-0.64	inactive
TUSC2 (tumor suppressor 2, mitochondrial calcium regulator)	0.17	inactive
TUSC2 (tumor suppressor 2, mitochondrial calcium regulator)	0.52	inactive
TUSC2 (tumor suppressor 2, mitochondrial calcium regulator)	-0.01	inactive
TUSC2 (tumor suppressor 2, mitochondrial calcium regulator)	0.11	inactive
TEX9 (testis expressed 9)	-0.27	inactive
TEX9 (testis expressed 9)	0.15	inactive
TEX9 (testis expressed 9)	0.01	inactive
TEX9 (testis expressed 9)	1.33	inactive
SHC4 (SHC adaptor protein 4)	-0.31	inactive
SHC4 (SHC adaptor protein 4)	0.52	inactive
SHC4 (SHC adaptor protein 4)	-0.45	inactive
SHC4 (SHC adaptor protein 4)	0.3	inactive
PDE10A (phosphodiesterase 10A)	0.32	inactive
PDE10A (phosphodiesterase 10A)	0.09	inactive
PDE10A (phosphodiesterase 10A)	1.07	inactive
PDE10A (phosphodiesterase 10A)	-0.64	inactive
HEYL	0.48	inactive
HEYL	0.91	inactive
HEYL	0.46	inactive
HEYL	1.89	inactive
RCL1 (RNA terminal phosphate cyclase like 1)	0.38	inactive
RCL1 (RNA terminal phosphate cyclase like 1)	0.18	inactive
RCL1 (RNA terminal phosphate cyclase like 1)	-0.22	inactive
TMTC4 (transmembrane O-mannosyltransferase targeting cadherins 4)	-0.98	inactive
TMTC4 (transmembrane O-mannosyltransferase targeting cadherins 4)	-0.85	inactive
TMTC4 (transmembrane O-mannosyltransferase targeting cadherins 4)	-1.54	active
TMTC4 (transmembrane O-mannosyltransferase targeting cadherins 4)	-0.79	inactive
H2AC20 (H2A clustered histone 20)	1.03	inactive
H2AC20 (H2A clustered histone 20)	0.58	inactive
H2AC20 (H2A clustered histone 20)	-0.07	inactive
H2AC20 (H2A clustered histone 20)	0.97	inactive
CCDC140 (CCDC140 long non-coding RNA)	4.48	active
CCDC140 (CCDC140 long non-coding RNA)	3.49	active
CCDC140 (CCDC140 long non-coding RNA)	1.53	inactive
CCDC140 (CCDC140 long non-coding RNA)	1.44	inactive
